No constants are given. Whether binding was seen depends on the method and setting. In cells and extracts the contact can be indirect. For some of these results: Binding calls can cover weak binding; strength is not graded here. Each block holds one binder with its values, some of them ahead of it.
Assays:
[1] = target: Fyn, native protein in brain homogenate; test: co-immunoprecipitation from brain homogenate with anti-ND2, immunoblot with anti-Fyn
[2] = target: GABAARα, native protein in PSD preparations (rat); test: co-immunoprecipitation from PSD preparations with anti-GABAARα, probed with anti-ND2
[3] = target: ND2.1-GST fusion protein (amino acids 239-321 of human ND2) (human); test: biotinylated peptides on ND2.1-GST, bead pull-down and dot blot
[4] = target: ND2.1-GST fusion protein (amino acids 239-321 of human ND2) (human); test: legend of FIGS. 6A-C (biotinylated peptides on ND2.1-GST, bead pull-down and dot blot)

binding [1]: no binding
binding [2]: no binding
B1: NADH dehydrogenase subunit 2 (ND2), native protein in brain lysates, PSD preparations, hippocampal neurons and tissues (protein, UniProt P11662 1-346, looked up)
chain: MNPITLIIIYFTILMGPVITMSSSNLLLMWVGLEMSLLAIIPLLANKKSPRSTEAATKYFLTQATASMIILLVIILNYKQSGMWTLQQQTNNMLLNMMLISLAMKLGLAPFHYWLPEVTQGIPLHIGLILLTWQKIAPLSILYQFYQLLNPTITTILAISSVFVGAWGGLNQTQTRKIMAYSSIAHMGWMTAILPYNPNLTLLNLTIYILLTVPMFITLMTNSATTINTLSLAWNKTPMILTMTSIILLSLGGLPPLTGFLPKWAIISELLKNNCSTLSTLMAIMALLSLFFYTRLIYSMSLTMFPTNNNSKMISHHHQNPKHNFILPTLTVLSTLTLPLSSQLIT

binding [3]: binds
binding [4]: binds
B2: Src40-49 peptide (SUDAPI-1) (peptide)
peptide: KPASADGHR
modifications: biotinylated with Sulfo-NHS-Biotin when used as probe

From US20070059320A1
